Record: PubChem BioAssay AID1259425 (University of Nebraska Medical Center, 2018)

- Screen: 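Find knockdowns that reproduce the gene expression pattern seen when KSR1 is lost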 (primary screen)
- Cell system: HCT116 human colon cancer cells
- Reagents: siRNA pool against human genes, 50 nM siRNA
- Measurement: 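mRNA of six signature genes measured together by branched-DNA assay after 50 nM siRNA pool, blank removed, divided by geometric mean of two housekeeping genes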
- Direction: BNIP3L mRNA: higher = more BNIP3L transcript after knockdown; NDRG1 mRNA: higher = more NDRG1 transcript after knockdown
This is a random part of about 14,000 reagents. Not all columns of the deposit are shown. No sequences are given here. Not given: the time to read-out.

For ANXA2, the values are BNIP3L mRNA, set 1 = 0.078; NDRG1 mRNA, set 1 = 0.123.
Against CRAMP1, the values are BNIP3L mRNA, set 1 = 0.135; NDRG1 mRNA, set 1 = 0.168.
After knock-down of SPRYD7, the record shows BNIP3L mRNA, set 1 = 0.0844; NDRG1 mRNA, set 1 = 0.189.
With knock-down of TAS2R9 the results were BNIP3L mRNA, set 1 = 0.0674; NDRG1 mRNA, set 1 = 0.362.
Depletion of SKA3 resulted in: BNIP3L mRNA, set 1 = 0.16; NDRG1 mRNA, set 1 = 0.289.
Knock-down of S100PBP came out at: BNIP3L mRNA, set 1 = 0.119; NDRG1 mRNA, set 1 = 0.172.
Knock-down of PSMA4 came out at: BNIP3L mRNA, set 1 = 0.246; NDRG1 mRNA, set 1 = 1.74.
YBEY showed BNIP3L mRNA, set 1 = 0.886; NDRG1 mRNA, set 1 = 1.76.
With knock-down of C5AR2, the screen gave BNIP3L mRNA, set 1 = 0.0798; NDRG1 mRNA, set 1 = 0.28.
For RABGGTB the deposit lists BNIP3L mRNA, set 1 = 0.201; NDRG1 mRNA, set 1 = 1.85.
ANXA5 gave BNIP3L mRNA, set 1 = 0.101; NDRG1 mRNA, set 1 = 0.118.
Knock-down of DDX21 came out at: BNIP3L mRNA, set 1 = 0.137; NDRG1 mRNA, set 1 = 0.52.
For RTEL1 the deposit lists BNIP3L mRNA, set 1 = 0.134; NDRG1 mRNA, set 1 = 0.257.
Silencing of TRPT1 resulted in: BNIP3L mRNA, set 1 = 0.0557; NDRG1 mRNA, set 1 = 0.161.
For MCM3AP, the entry reads BNIP3L mRNA, set 1 = 0.106; NDRG1 mRNA, set 1 = 0.14.
With knock-down of UBE2V1, the screen gave BNIP3L mRNA, set 1 = 0.101; NDRG1 mRNA, set 1 = 0.259.
With knock-down of MFRP, the screen gave BNIP3L mRNA, set 1 = 0.184; NDRG1 mRNA, set 1 = 0.191.
For MSH2, the values are BNIP3L mRNA, set 1 = 0.128; NDRG1 mRNA, set 1 = 0.111.
After knock-down of KCTD3, the screen gave BNIP3L mRNA, set 1 = 0.158; NDRG1 mRNA, set 1 = 0.107.
PUS1 scored BNIP3L mRNA, set 1 = 0.116; NDRG1 mRNA, set 1 = 0.276.
Against ANGPT1, the entry reads BNIP3L mRNA, set 1 = 0.126; NDRG1 mRNA, set 1 = 0.474.
After knock-down of MAVS, the screen gave BNIP3L mRNA, set 1 = 0.192; NDRG1 mRNA, set 1 = 0.847.
Depletion of DLX3 resulted in: BNIP3L mRNA, set 1 = 0.0807; NDRG1 mRNA, set 1 = 0.0872.
For MRTO4 the deposit lists BNIP3L mRNA, set 1 = 0.0921; NDRG1 mRNA, set 1 = 0.399.
GALNT11 showed BNIP3L mRNA, set 1 = 0.117; NDRG1 mRNA, set 1 = 0.33.
Silencing of CRISP2 resulted in: BNIP3L mRNA, set 1 = 0.164; NDRG1 mRNA, set 1 = 0.421.
DIABLO gave BNIP3L mRNA, set 1 = 0.0642; NDRG1 mRNA, set 1 = 0.639.
After knock-down of RPS27L, the record shows BNIP3L mRNA, set 1 = 0.163; NDRG1 mRNA, set 1 = 0.448.

Copied from the listing for reference:
ANXA2 → BNIP3L mRNA, set 1: 0.078; NDRG1 mRNA, set 1: 0.123
CRAMP1 → BNIP3L mRNA, set 1: 0.135; NDRG1 mRNA, set 1: 0.168
